The record followed here is paper PMC8016867.

Chains of the proteins cited; added tags and fusions are not shown.
UniProt P48432: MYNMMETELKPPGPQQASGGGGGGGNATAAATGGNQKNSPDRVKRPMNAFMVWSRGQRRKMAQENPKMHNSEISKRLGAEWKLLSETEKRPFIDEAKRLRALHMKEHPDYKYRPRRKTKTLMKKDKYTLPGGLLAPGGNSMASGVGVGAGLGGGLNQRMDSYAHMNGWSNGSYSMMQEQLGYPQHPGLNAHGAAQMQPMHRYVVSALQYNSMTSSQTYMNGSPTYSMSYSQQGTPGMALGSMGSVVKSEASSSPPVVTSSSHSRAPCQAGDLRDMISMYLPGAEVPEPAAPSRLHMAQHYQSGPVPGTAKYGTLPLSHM
UniProt Q9R210: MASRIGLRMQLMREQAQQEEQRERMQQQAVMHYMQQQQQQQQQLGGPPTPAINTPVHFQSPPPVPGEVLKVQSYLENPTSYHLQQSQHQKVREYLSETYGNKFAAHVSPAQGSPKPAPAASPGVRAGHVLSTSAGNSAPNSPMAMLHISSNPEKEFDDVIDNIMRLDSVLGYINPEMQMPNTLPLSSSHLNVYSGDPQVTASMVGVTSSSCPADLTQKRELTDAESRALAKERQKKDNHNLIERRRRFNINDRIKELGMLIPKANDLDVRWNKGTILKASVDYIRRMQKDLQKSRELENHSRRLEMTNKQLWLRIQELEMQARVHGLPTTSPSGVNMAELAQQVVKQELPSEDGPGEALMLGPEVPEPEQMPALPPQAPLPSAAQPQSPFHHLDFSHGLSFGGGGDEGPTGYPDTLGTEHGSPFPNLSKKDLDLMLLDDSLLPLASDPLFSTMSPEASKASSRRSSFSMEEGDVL

This assay deals with Sex-determining region Y-box2 (Sox2), endogenous in mESCs (mouse (endogenous in E14 mESCs)) (UniProt P48432). Briefly: co-IP; endogenous proteins; mESC lysates (1% Triton X-100, 100 mM NaCl, 20 mM Tris pH 7.5), indicated antibodies with protein A/G plus agarose beads, immunoblot. In general terms: A western blot detects proteins with antibodies after separation by electrophoresis.

These are yes or no findings as the source states them, for the method shown. In cells and extracts the contact can be indirect. Some results given as binding are weak or reduced against the parent protein; the word gives no strength.

As to “Transcription factor EB (TFEB), endogenous in mESCs (from UniProt Q9R210 1-475)”, the binding result is on record as “binds”.
